Experimental data from publication PMC4494967.
Results are given in words; binding and its absence hold for the method and conditions named. Binding seen in cells or lysates may run through a third protein. A result given as binding can be weak or reduced; the word gives no strength. Sequences can lack the tags named with a protein.

Target: T1, S-tag-GFP-CCDC6 (UniProt Q16204)
T1 sequence: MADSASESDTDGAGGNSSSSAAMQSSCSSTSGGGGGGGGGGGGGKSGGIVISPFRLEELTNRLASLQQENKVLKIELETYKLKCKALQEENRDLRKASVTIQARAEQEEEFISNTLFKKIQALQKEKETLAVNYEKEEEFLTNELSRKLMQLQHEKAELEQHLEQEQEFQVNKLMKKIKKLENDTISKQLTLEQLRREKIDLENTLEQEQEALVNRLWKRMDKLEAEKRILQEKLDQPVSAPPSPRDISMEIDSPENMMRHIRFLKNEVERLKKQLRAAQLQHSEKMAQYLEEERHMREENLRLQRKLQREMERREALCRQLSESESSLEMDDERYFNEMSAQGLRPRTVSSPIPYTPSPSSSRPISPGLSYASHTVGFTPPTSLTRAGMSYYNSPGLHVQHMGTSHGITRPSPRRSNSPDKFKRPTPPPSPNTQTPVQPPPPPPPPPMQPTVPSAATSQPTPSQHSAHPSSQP
Test: pull-down; S-protein (S-tag) pull-down of S-tag-GFP-CCDC6 from asynchronous or mitotic (nocodazole) HeLa Kyoto extracts; immunoblot with anti-cyclin B, anti-GSK3, anti-CCDC6

“glycogen synthase kinase 3 (GSK3) (human (endogenous in HeLa)) (enzyme)” was tested, and the binding was “binds”.
